Laboratory results taken from PMC12040169 (PLOS Biology, 2025).
The list shows a part of the results.

test system: T1, CTL2-GFP (C. trachomatis L2/434/Bu, GFP-expressing); parameters: species or system HeLa; Intracellular C. trachomatis growth in HeLa cells, bulk GFP fluorescence relative to DMSO; details: bulk GFP, single well; 28.5 h, 10 µM; inhibitor
T1 construct: L2/434/Bu, GFP-expressing

SMILES | % of control remaining [%]
COCCc1noc(CC2CCN(c3ncc(Cl)cn3)CC2)n1 [CBK304172] | 150.833
COc1ccc(NC(=O)C2CN(S(=O)(=O)c3ccccc3)CCN2S(=O)(=O)c2ccccc2)cc1 (stereo not shown) [CBK262500] | 77.4743
NC(=O)c1c(NC(=O)COc2ccccc2[N+](=O)[O-])sc2c1CCC2 [CBK262819] | 101.564
COc1ccc(-c2cc(C(=O)Nc3nc4c(OC)cccc4s3)cnc2-c2ccccc2)cn1 [CBK036681] | 87.5767
COc1ccc(CCCC(=O)N2CCN(c3ccccc3OC)CC2)cc1OC [CBK091495] | 100
O=C(CSc1nc2ccccc2o1)N1c2ccccc2Sc2ccccc21 [CBK221524] | 79.6863
O=C(C1C2CCCCC21)N1CCC(Oc2ccc(F)cc2)CC1 (stereo not shown) [CBK282065] | 118.001
Cc1ccccc1NC(=O)CC1c2ccccc2CC(C)(C)N1C (stereo not shown) [CBK262567] | 105.504
CCCn1nc(C)c(CN(C)Cc2n[nH]c3c2CCCC3)c1C [CBK282600] | 145.098
COc1ccc(N2CCN(Cc3cc([N+](=O)[O-])ccc3Cl)CC2)cc1 [CBK261571] | 100
CC(=O)Nc1cccc(Oc2nccnc2/C=C/c2ccccc2)c1 [CBK106881] | 100
O=C(O)CCCCCN1C(=O)C2CC=CCC2C1=O (stereo not shown) [CBK286534] | 124.451
CCOC(=O)c1csc(C2CCCN2C(=O)CCc2ccccc2O)n1 (stereo not shown) [CBK305448] | 97.3822
Cc1ccc(-c2nnc3ccc(SCC(=O)NC4CCCC4)nn23)cc1 [CBK287523] | 146.005
Cc1c(OCCC2CCCCN2C)ccc2c(=O)cc(N3CCOCC3)oc12 (stereo not shown) [CBK016644] | 148.394
CCC(=O)Nc1ccccc1C(=O)C(=O)O [CBK219398] | 86.0208
CC(C)S(=O)(=O)n1ccn(-c2ccc3c(c2)OCO3)c1=O [CBK106630] | 100
O=C(C1=C(O)C(=O)N(CCCN2CCOCC2)C1c1cccnc1)c1cccs1 (stereo not shown) [CBK264555] | 127.386
CN(C(=O)c1ccc(-n2nncc2-c2ccccc2)cc1)c1ccccc1 [CBK288107] | 134.744
O=C(Nc1nc(-c2ccccc2)cs1)c1ccc(Br)cc1 [CBK068003] | 131.435

SMILES | % of control remaining [%]
COc1ccc(CCC(=O)N2CCCC2c2cc(Nc3nccs3)cc(C)n2)cc1 (stereo not shown) [CBK285939] | 101.851
Cc1ncc2c(n1)[C@@H]1CN(C(=O)Cc3cccs3)C[C@@H]1CC2 [CBK284491] | 112.132
CCS(=O)(=O)Nc1cc(Cl)ccc1C [CBK111350] | 178.634
Cc1ccc(CN(CCN(C)C)Cc2c(C)nc3sccn23)o1 [CBK283229] | 91.3642
CN1C(=O)CN(C2CCCCC2)C1=O [CBK116320] | 125.506
O=C(O)C1CCCN1C(=O)NCc1c(Cl)cccc1Cl (stereo not shown) [CBK161383] | 135.587
CC1CCC(C(N)=O)CN1c1cc(=O)n2ccccc2n1 (stereo not shown) [CBK304835] | 98.9125
COc1ccc(-n2c(Cc3ccccc3)nnc2SCC(=O)c2ccccc2)cc1 [CBK265989] | 117.952
O=C(CSCc1ccccc1Br)Nc1ccccc1-c1ccccc1 [CBK265959] | 121.481
CCCC/C=C/c1cncc(N[C@@H](C)c2ccccc2)n1 [CBK065472] | 105.915
COc1ccc(C(=O)N2CCN(c3nc4c(s3)c(C)nn4C)CC2)cc1 [CBK307457] | 91.3637
CCN(CC)C(=O)[C@@H](C)C1CC[C@@]2(C)CC[C@H](NC(=O)C3CC3)[C@@H](C)[C@@H]2[C@H]1O (stereo partly shown) [CBK289443] | 103.497
C=C(C)CN1CCN(C(=O)c2c(C)oc3ccc(O)cc23)CC1 [CBK282626] | 109.177
CC(C)NC(=O)c1sc2ccccc2c1C1CN(Cc2cccc3ncccc23)CCO1 (stereo not shown) [CBK285879] | 109.654
CCN(CC)C(=O)C1CCCN(C(=O)NCc2ccc(Cl)c(Cl)c2)C1 (stereo not shown) [CBK156119] | 104.672
N#C/C(=C\c1cn(CCC(N)=O)c2ccccc12)Sc1nc2ccccc2s1 [CBK267897] | 95.3496
CCc1cnc(CN(C)C2CCN(CC(=O)Nc3cccnc3)C2)o1 (stereo not shown) [CBK305358] | 171.319
O=C(NCc1ccccc1)c1ccno1 [CBK200197] | 115.38
Cc1cc(CNC(=O)N2CCCCC2CO)no1 (stereo not shown) [CBK156160] | 112.897
CS(=O)(=O)N1CCCCCC1c1cc(-c2cccs2)on1 (stereo not shown) [CBK284670] | 109.554

A different layout for 10 compounds above:
SMILES	% of control remaining [%]
CCS(=O)(=O)Nc1cc(Cl)ccc1C [CBK111350]	178.634
COc1ccc(-n2c(Cc3ccccc3)nnc2SCC(=O)c2ccccc2)cc1 [CBK265989]	117.952
O=C(CSCc1ccccc1Br)Nc1ccccc1-c1ccccc1 [CBK265959]	121.481
CCCC/C=C/c1cncc(N[C@@H](C)c2ccccc2)n1 [CBK065472]	105.915
COc1ccc(C(=O)N2CCN(c3nc4c(s3)c(C)nn4C)CC2)cc1 [CBK307457]	91.3637
CCN(CC)C(=O)[C@@H](C)C1CC[C@@]2(C)CC[C@H](NC(=O)C3CC3)[C@@H](C)[C@@H]2[C@H]1O (stereo partly shown) [CBK289443]	103.497
CCN(CC)C(=O)C1CCCN(C(=O)NCc2ccc(Cl)c(Cl)c2)C1 (stereo not shown) [CBK156119]	104.672
O=C(NCc1ccccc1)c1ccno1 [CBK200197]	115.38
Cc1cc(CNC(=O)N2CCCCC2CO)no1 (stereo not shown) [CBK156160]	112.897
CS(=O)(=O)N1CCCCCC1c1cc(-c2cccs2)on1 (stereo not shown) [CBK284670]	109.554
